For this test, the target named is multidrug resistance protein 1 (MRP1) (human (endogenous in MDA-MB-231 and SKBR3)) (UniProt P33527). As to the kind of experiment: co-IP; endogenous proteins in MDA-MB-231 and SKBR3 cell lysates; immunoprecipitate immunoblotted with anti-FSIP1 or anti-MRP1 antibody; IgG as negative control.

Amino acid sequences for entries named in this document (tags omitted).
UniProt P33527: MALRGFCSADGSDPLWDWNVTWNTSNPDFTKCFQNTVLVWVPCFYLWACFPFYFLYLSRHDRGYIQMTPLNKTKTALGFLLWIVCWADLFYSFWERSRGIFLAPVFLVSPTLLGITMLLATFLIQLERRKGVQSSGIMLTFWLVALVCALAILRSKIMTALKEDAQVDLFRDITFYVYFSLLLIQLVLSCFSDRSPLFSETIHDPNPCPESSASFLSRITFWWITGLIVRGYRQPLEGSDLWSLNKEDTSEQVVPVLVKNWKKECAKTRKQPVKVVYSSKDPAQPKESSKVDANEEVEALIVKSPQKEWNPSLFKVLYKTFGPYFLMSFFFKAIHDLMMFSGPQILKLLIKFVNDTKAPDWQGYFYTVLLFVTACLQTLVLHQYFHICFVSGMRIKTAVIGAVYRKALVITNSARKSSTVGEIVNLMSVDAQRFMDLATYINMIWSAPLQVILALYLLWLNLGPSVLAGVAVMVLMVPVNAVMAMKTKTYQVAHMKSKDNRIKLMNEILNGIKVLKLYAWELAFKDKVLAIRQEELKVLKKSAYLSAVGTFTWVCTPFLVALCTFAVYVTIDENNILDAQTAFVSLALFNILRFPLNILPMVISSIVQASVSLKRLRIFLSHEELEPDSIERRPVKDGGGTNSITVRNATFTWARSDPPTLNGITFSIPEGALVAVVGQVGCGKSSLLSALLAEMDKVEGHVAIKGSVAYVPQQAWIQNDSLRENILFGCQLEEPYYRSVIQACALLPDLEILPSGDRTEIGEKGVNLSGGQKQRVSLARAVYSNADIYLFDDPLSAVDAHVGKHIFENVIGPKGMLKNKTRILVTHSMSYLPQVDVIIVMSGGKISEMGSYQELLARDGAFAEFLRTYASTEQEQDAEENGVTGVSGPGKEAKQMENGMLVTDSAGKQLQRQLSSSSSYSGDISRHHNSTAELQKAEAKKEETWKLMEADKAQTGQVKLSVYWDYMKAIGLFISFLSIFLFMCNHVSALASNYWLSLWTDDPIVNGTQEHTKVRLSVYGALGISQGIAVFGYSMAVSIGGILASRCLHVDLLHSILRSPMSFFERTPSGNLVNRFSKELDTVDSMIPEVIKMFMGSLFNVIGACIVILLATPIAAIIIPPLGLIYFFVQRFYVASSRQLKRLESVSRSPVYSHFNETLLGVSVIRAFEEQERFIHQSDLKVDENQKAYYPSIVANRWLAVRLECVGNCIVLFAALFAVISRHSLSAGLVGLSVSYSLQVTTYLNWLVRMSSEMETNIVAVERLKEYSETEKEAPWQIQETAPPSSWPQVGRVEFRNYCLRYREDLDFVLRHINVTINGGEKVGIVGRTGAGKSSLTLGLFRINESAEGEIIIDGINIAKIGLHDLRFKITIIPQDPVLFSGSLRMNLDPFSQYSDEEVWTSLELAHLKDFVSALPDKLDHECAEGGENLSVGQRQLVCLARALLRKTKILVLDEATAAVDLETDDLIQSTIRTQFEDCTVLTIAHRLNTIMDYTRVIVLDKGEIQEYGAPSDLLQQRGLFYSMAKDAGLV
UniProt Q8NA03: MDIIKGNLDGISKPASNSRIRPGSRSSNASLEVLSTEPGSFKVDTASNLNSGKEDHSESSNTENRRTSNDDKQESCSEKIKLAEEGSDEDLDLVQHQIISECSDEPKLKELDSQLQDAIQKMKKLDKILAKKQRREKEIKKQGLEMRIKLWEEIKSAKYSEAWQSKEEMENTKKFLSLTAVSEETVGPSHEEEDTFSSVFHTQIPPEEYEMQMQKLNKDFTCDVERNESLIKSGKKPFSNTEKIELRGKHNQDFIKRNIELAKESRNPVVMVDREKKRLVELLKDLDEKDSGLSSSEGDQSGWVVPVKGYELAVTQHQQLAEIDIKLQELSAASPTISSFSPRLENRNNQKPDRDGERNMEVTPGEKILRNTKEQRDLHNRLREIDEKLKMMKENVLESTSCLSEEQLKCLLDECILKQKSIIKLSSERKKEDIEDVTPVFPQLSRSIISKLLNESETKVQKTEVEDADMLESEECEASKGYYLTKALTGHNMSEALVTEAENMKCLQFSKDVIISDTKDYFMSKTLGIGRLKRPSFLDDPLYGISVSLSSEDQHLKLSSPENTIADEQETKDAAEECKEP

Results are given in words; binding and its absence hold for the method and conditions named. In cells and extracts the contact can be indirect. Some results given as binding are weak or reduced against the parent protein; the word gives no strength.

Consider “Fibrous sheath-interacting protein 1 (FSIP1) (from UniProt Q8NA03 1-581)”, for which the binding entry is given as “binds”.

The values are drawn from article PMC6393503.
